# Counter-ions that a name gives are not always drawn. ± gives the standard deviation of the averaged measurements. The list shows a part of the results. Part of the spread comes from offsets between plates or batches.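 The cells are a mouse kidney inner medullary collecting duct line, silenced either for the ciliary gene Rpgrip1l or with a non-targeting control siRNA.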
# Tested on: mIMCD3
# Assay: robust z score of cell number vs plate controls; higher = more cells (less cytotoxic)
# Conditions: 10 µM; 48 h; siRNA: siRpgrip1l
row,SMILES,robust z score of cell number
1,O=Nc1c(-c2c(O)[nH]c3ccccc23)[nH]c2ccccc12 [Indirubin-3'-oxime],-44.7 ± 41
2,Nc1nc2ccc(OC(F)(F)F)cc2s1 [Riluzole hydrochloride],-39.2 ± 7.8
3,CC(C)NCCN(C(C)C)S(=O)(=O)c1ccc(Cl)cc1Cl,-18.1 ± 17
4,"Cc1ccccc1N1CCN(S(=O)(=O)C[C@]23CC[C@H](C[C@@H]2NC(=O)[C@@H](N)CCS(C)(=O)=O)C3(C)C)CC1 [L-368,899 hydrochloride]",-5.99 ± 3
5,CC1(CN2CCC(n3c(=O)[nH]c4ccccc43)CC2)OCc2ccccc2-n2cccc21 (stereo not drawn),-22.9 ± 12
6,O=C1Nc2ccc(I)cc2/C1=C/c1cc(Br)c(O)c(Br)c1,-307 ± 220
7,CN1CCc2cc(Cl)c(O)cc2[C@@H](c2ccccc2)C1,-3.47 ± 0.34
8,Nc1ncnc2n[nH]c(Nc3ccc(F)cc3)c12,-12.5 ± 11
9,Cc1nn(-c2ccccc2)c(C)c1C=NN1CCN(Cc2ccccc2)CC1,0.885 ± 2.1
10,O=C(Nc1ccc(C(F)(F)F)cn1)N1CCN(c2ncccc2C(F)(F)F)CC1,-4.58 ± 2.5
11,CCN(CC)CCCCNc1ncc2cc(-c3c(Cl)cccc3Cl)c(NC(=O)NC(C)(C)C)nc2n1,-62.1 ± 53
12,CCC(=O)NC[C@H](Cc1ccc(OCCc2nc(-c3ccccc3)oc2C)cc1)N/C(C)=C\C(=O)c1ccc(C(F)(F)F)cc1,-23.3 ± 12
13,"OCCNCCCOc1cccc(Cl)c1Cl [2,3-DCPE hydrochloride]",-9.08 ± 5.3
14,CC[C@H](NC(=O)c1c(C)c(-c2ccccc2)nc2ccccc12)c1ccccc1,-178 ± 130
15,CCN(CC)CC1CCN(c2ncc3ncnc(Nc4ccc(F)c(Cl)c4)c3n2)CC1 [BIBU 1361 dihydrochloride],-29.9 ± 15
16,COc1c(C)c2c(c(O)c1C/C=C(\C)CCC(=O)O)C(=O)OC2 [Mycophenolic acid],-192 ± 220
17,COc1ccc(Cl)cc1C(=O)NCCc1ccc(S(=O)(=O)NC(=O)NC2CCCCC2)cc1 [Glibenclamide],-3.31 ± 0.98
18,CCn1c(=O)[nH]c2ccccc21,-7.04 ± 1.9
19,COc1ccc2c(c1)c(CC(=O)O)c(C)n2C(=O)c1ccc(Cl)cc1 [Indomethacin],-8.19 ± 4.3
20,COc1ccc(NS(=O)(=O)c2ccc(I)cc2)cc1N1CCN(C)CC1,4.68 ± 7.8

row,SMILES,robust z score of cell number
1,O=C(OCCN1CCOCC1)C1(c2ccccc2)CCCCC1 [PRE-084 hydrochloride],-2.16 ± 9
2,O=C1C=CC(=O)C2=C1C1c3ccccc3C2c2ccccc21,-2.49 ± 0.7
3,CCCc1c(OCCCOc2ccc(OCC(=O)O)cc2)ccc(C(C)=O)c1O,-24.6 ± 24
4,Nc1nccc(-c2ccc3noc(-c4ccc(Cl)cc4)c3c2)n1 [PIM 1 Inhibitor 2],-24.4 ± 25
5,c1ccc(-c2n[nH]c3c2oc2ccccc23)cc1,-11.1 ± 3.8
6,CCCCCCN(CCCCCC)C(=O)Cc1c(-c2ccc(Cl)cc2)[nH]c2ccc(Cl)cc12,-88.4 ± 66
7,Cc1nn(C)c2nc(NNC(=O)Nc3cc(Cl)nc(Cl)c3)cc(C(C)C)c12,-28.9 ± 14
8,Cc1cc(I)ccc1Nc1c(C(=O)NOCC2CC2)cc(F)c(F)c1F,-32.1 ± 10
9,CC1(C)O[C@@H]2[C@@H](CO[C@@]3(COS(N)(=O)=O)OC(C)(C)O[C@@H]23)O1 [Topiramate],-13.2 ± 14
10,CC/C(=C(\c1ccccc1)c1ccc(OCCN(C)C)cc1)c1ccccc1 [Tamoxifen citrate],-30.7 ± 0.55
11,CC(C)Oc1cccc(-n2c(CCc3c[nH]c4ccc(Br)cc34)nc3ccccc3c2=O)c1,-26.4 ± 0.81
12,COc1ccccc1N1CCN(CCN2C(=O)CC3(CCCC3)CC2=O)CC1 [BMY 7378 dihydrochloride],-3.73 ± 0.7
13,CCCc1c(OCC(O)COc2ccc3c(=O)cc(C(=O)O)oc3c2CCC)ccc(C(C)=O)c1O (stereo not drawn),-4.74 ± 1.1
14,CCC(NC(C)C)C(O)c1ccc(O)c2[nH]c(=O)ccc12 (stereo not drawn) [Procaterol hydrochloride],-9.22 ± 1.6
15,O=C(O)CCc1ccc(NCc2cccc(Oc3ccccc3)c2)cc1,-10.5 ± 4.8
16,C[N+](C)(C)CC[N+]1(C)Cc2c(Cl)c(Cl)c(Cl)c(Cl)c2C1 [Chlorisondamine diiodide],1.5 ± 3.6
17,C[C@@H](CN1CC(=O)NC(=O)C1)N1CC(=O)NC(=O)C1 [Dexrazoxane hydrochloride],-54.5 ± 40
18,O=C1OC(OC(=O)c2cccnc2Nc2cccc(C(F)(F)F)c2)c2ccccc21 (stereo not drawn) [Talniflumate],-15.8 ± 7.2
19,Nc1nc2c(cnn2CCc2ccccc2)c2nc(-c3ccco3)nn12,-11.8 ± 4.6

# Same assay, conditions: 10 µM; 48 h; siRNA: siScr
row,SMILES,robust z score of cell number
1,O=Nc1c(-c2c(O)[nH]c3ccccc23)[nH]c2ccccc12 [Indirubin-3'-oxime],-44.8 ± 29
2,Nc1nc2ccc(OC(F)(F)F)cc2s1 [Riluzole hydrochloride],-29 ± 5.2
3,CC(C)NCCN(C(C)C)S(=O)(=O)c1ccc(Cl)cc1Cl,-19.6 ± 1.9
4,"Cc1ccccc1N1CCN(S(=O)(=O)C[C@]23CC[C@H](C[C@@H]2NC(=O)[C@@H](N)CCS(C)(=O)=O)C3(C)C)CC1 [L-368,899 hydrochloride]",-24.6 ± 23
5,CC1(CN2CCC(n3c(=O)[nH]c4ccccc43)CC2)OCc2ccccc2-n2cccc21 (stereo not drawn),-17.7 ± 0.19
6,O=C1Nc2ccc(I)cc2/C1=C/c1cc(Br)c(O)c(Br)c1,-40.6 ± 9.6
7,CN1CCc2cc(Cl)c(O)cc2[C@@H](c2ccccc2)C1,-0.836 ± 0.36
8,Nc1ncnc2n[nH]c(Nc3ccc(F)cc3)c12,-3.39 ± 1
9,Cc1nn(-c2ccccc2)c(C)c1C=NN1CCN(Cc2ccccc2)CC1,-1.54 ± 2.5
10,O=C(Nc1ccc(C(F)(F)F)cn1)N1CCN(c2ncccc2C(F)(F)F)CC1,-4.29 ± 1.5
11,CCN(CC)CCCCNc1ncc2cc(-c3c(Cl)cccc3Cl)c(NC(=O)NC(C)(C)C)nc2n1,-51.7 ± 1.6
12,CCC(=O)NC[C@H](Cc1ccc(OCCc2nc(-c3ccccc3)oc2C)cc1)N/C(C)=C\C(=O)c1ccc(C(F)(F)F)cc1,-18.3 ± 2.2
13,"OCCNCCCOc1cccc(Cl)c1Cl [2,3-DCPE hydrochloride]",-18.7 ± 18
14,CC[C@H](NC(=O)c1c(C)c(-c2ccccc2)nc2ccccc12)c1ccccc1,-18.2 ± 4.9
15,CCN(CC)CC1CCN(c2ncc3ncnc(Nc4ccc(F)c(Cl)c4)c3n2)CC1 [BIBU 1361 dihydrochloride],-27.5 ± 5
16,COc1c(C)c2c(c(O)c1C/C=C(\C)CCC(=O)O)C(=O)OC2 [Mycophenolic acid],-44.7 ± 11
17,COc1ccc(Cl)cc1C(=O)NCCc1ccc(S(=O)(=O)NC(=O)NC2CCCCC2)cc1 [Glibenclamide],-3.22 ± 3.5
18,CCn1c(=O)[nH]c2ccccc21,-2.8 ± 0.64
19,COc1ccc2c(c1)c(CC(=O)O)c(C)n2C(=O)c1ccc(Cl)cc1 [Indomethacin],-12.5 ± 0.57
20,COc1ccc(NS(=O)(=O)c2ccc(I)cc2)cc1N1CCN(C)CC1,-2.19 ± 0.9

row,SMILES,robust z score of cell number
1,O=C(OCCN1CCOCC1)C1(c2ccccc2)CCCCC1 [PRE-084 hydrochloride],9.72 ± 11
2,O=C1C=CC(=O)C2=C1C1c3ccccc3C2c2ccccc21,1.83 ± 1.5
3,CCCc1c(OCCCOc2ccc(OCC(=O)O)cc2)ccc(C(C)=O)c1O,-21.8 ± 14
4,Nc1nccc(-c2ccc3noc(-c4ccc(Cl)cc4)c3c2)n1 [PIM 1 Inhibitor 2],-7.77 ± 8.3
5,c1ccc(-c2n[nH]c3c2oc2ccccc23)cc1,-19.3 ± 21
6,CCCCCCN(CCCCCC)C(=O)Cc1c(-c2ccc(Cl)cc2)[nH]c2ccc(Cl)cc12,-108 ± 90
7,Cc1nn(C)c2nc(NNC(=O)Nc3cc(Cl)nc(Cl)c3)cc(C(C)C)c12,-25.9 ± 4.3
8,Cc1cc(I)ccc1Nc1c(C(=O)NOCC2CC2)cc(F)c(F)c1F,-141 ± 100
9,CC1(C)O[C@@H]2[C@@H](CO[C@@]3(COS(N)(=O)=O)OC(C)(C)O[C@@H]23)O1 [Topiramate],1.2 ± 1.2
10,CC/C(=C(\c1ccccc1)c1ccc(OCCN(C)C)cc1)c1ccccc1 [Tamoxifen citrate],-27.8 ± 14
11,CC(C)Oc1cccc(-n2c(CCc3c[nH]c4ccc(Br)cc34)nc3ccccc3c2=O)c1,-25.2 ± 12
12,COc1ccccc1N1CCN(CCN2C(=O)CC3(CCCC3)CC2=O)CC1 [BMY 7378 dihydrochloride],-4.35 ± 1.8
13,CCCc1c(OCC(O)COc2ccc3c(=O)cc(C(=O)O)oc3c2CCC)ccc(C(C)=O)c1O (stereo not drawn),-2.68 ± 1.9
14,CCC(NC(C)C)C(O)c1ccc(O)c2[nH]c(=O)ccc12 (stereo not drawn) [Procaterol hydrochloride],0.939 ± 0.38
15,O=C(O)CCc1ccc(NCc2cccc(Oc3ccccc3)c2)cc1,-54.6 ± 53
16,C[N+](C)(C)CC[N+]1(C)Cc2c(Cl)c(Cl)c(Cl)c(Cl)c2C1 [Chlorisondamine diiodide],0.997 ± 0.072
17,C[C@@H](CN1CC(=O)NC(=O)C1)N1CC(=O)NC(=O)C1 [Dexrazoxane hydrochloride],-1.88 ± 1.6
18,O=C1OC(OC(=O)c2cccnc2Nc2cccc(C(F)(F)F)c2)c2ccccc21 (stereo not drawn) [Talniflumate],-74.8 ± 73
19,Nc1nc2c(cnn2CCc2ccccc2)c2nc(-c3ccco3)nn12,-8.49 ± 0.16

# Source: the supplement of paper PMC12009310
